{"source": "PubChem BioAssay AID1159578, Peter MacCallum Cancer Centre – 2015", "test": "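Genome-wide hunt for genes controlling movement of lymphatic endothelial cells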 (primary screen)", "cells": "human lymphatic endothelial cells", "knock-down reagent": "siRNA pool against human genes, 40 nM", "duration": "48 h after transfection", "read-out": "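Cells stained with dye and imaged after a scratch; covered wound area and nuclei counted, duplicates averaged, migration set against mock wells and turned into a robust z-score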", "scale": "migration robust z-score: higher = faster migration into the scratch; nuclei per well: higher = more cells in the well", "call rule": "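Migration changed when robust z exceeds 2 or falls below -2 and mean nuclei number is at least 3300; otherwise not called changed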", "meaning of the calls": "active = migration changed; inactive = no migration change, or too few cells", "note": "The deposit covers about 18,000 reagents; shown is an unselected part. In the full data, about 1,030 (5.7%) are marked active. 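Inactive calls also include pools with fewer than 3300 nuclei, whose migration was not assessed.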 The raw values are shown without normalisation. Further read-outs or replicates are left out here."}
{"Gene":"ARID3C","migration robust z-score":-0.01,"migration class with cell-count check":"migration z between -2 and 2; enough cells","nuclei per well, duplicate mean":5114,"Call":"inactive"}
{"Gene":"OR8A1","migration robust z-score":-0.2,"migration class with cell-count check":"migration z between -2 and 2; enough cells","nuclei per well, duplicate mean":6502,"Call":"inactive"}
{"Gene":"IRS1","migration robust z-score":-0.48,"migration class with cell-count check":"migration z between -2 and 2; enough cells","nuclei per well, duplicate mean":3864,"Call":"inactive"}
{"Gene":"SNAP23","migration robust z-score":-0.56,"migration class with cell-count check":"migration z between -2 and 2; enough cells","nuclei per well, duplicate mean":5054,"Call":"inactive"}
{"Gene":"DUSP8","migration robust z-score":-0.42,"migration class with cell-count check":"migration z between -2 and 2; enough cells","nuclei per well, duplicate mean":5238,"Call":"inactive"}
{"Gene":"LIMS3","migration robust z-score":-0.89,"migration class with cell-count check":"migration z between -2 and 2; enough cells","nuclei per well, duplicate mean":5385,"Call":"inactive"}
{"Gene":"ASPNAT","migration robust z-score":-1.56,"migration class with cell-count check":"migration z between -2 and 2; enough cells","nuclei per well, duplicate mean":5924,"Call":"inactive"}
{"Gene":"CYSLTR1","migration robust z-score":-0.91,"migration class with cell-count check":"migration z between -2 and 2; enough cells","nuclei per well, duplicate mean":7562,"Call":"inactive"}

Single entries from the entries so far.
Entry for LIMS3 under “Call”: inactive
DUSP8, nuclei per well, duplicate mean → 5238

Further results follow.
{"Gene":"RAD54L2","migration robust z-score":1.74,"migration class with cell-count check":"migration z between -2 and 2; enough cells","nuclei per well, duplicate mean":6721,"Call":"inactive"}
{"Gene":"MATN2","migration robust z-score":-0.3,"migration class with cell-count check":"migration z between -2 and 2; enough cells","nuclei per well, duplicate mean":4548,"Call":"inactive"}
{"Gene":"FANCD2","migration robust z-score":-0.08,"migration class with cell-count check":"migration z between -2 and 2; enough cells","nuclei per well, duplicate mean":5634,"Call":"inactive"}
{"Gene":"EDDM3A","migration robust z-score":0.4,"migration class with cell-count check":"migration z between -2 and 2; enough cells","nuclei per well, duplicate mean":5720,"Call":"inactive"}
{"Gene":"ANKS6","migration robust z-score":0.84,"migration class with cell-count check":"migration z between -2 and 2; enough cells","nuclei per well, duplicate mean":7136,"Call":"inactive"}
{"Gene":"NADK2","migration robust z-score":-1.4,"migration class with cell-count check":"migration z between -2 and 2; enough cells","nuclei per well, duplicate mean":6251,"Call":"inactive"}
{"Gene":"TMPRSS9","migration robust z-score":-0.42,"migration class with cell-count check":"migration z between -2 and 2; enough cells","nuclei per well, duplicate mean":4332,"Call":"inactive"}
{"Gene":"ESPNL","migration robust z-score":-0.1,"migration class with cell-count check":"migration z between -2 and 2; enough cells","nuclei per well, duplicate mean":5790,"Call":"inactive"}
{"Gene":"PCDH9","migration robust z-score":0.54,"migration class with cell-count check":"migration z between -2 and 2; enough cells","nuclei per well, duplicate mean":5463,"Call":"inactive"}
{"Gene":"MACC1","migration robust z-score":0.28,"migration class with cell-count check":"migration z between -2 and 2; enough cells","nuclei per well, duplicate mean":6202,"Call":"inactive"}
{"Gene":"COQ6","migration robust z-score":-0.29,"migration class with cell-count check":"migration z between -2 and 2; enough cells","nuclei per well, duplicate mean":6520,"Call":"inactive"}
{"Gene":"KCNK3","migration robust z-score":-1.58,"migration class with cell-count check":"migration z between -2 and 2; enough cells","nuclei per well, duplicate mean":6206,"Call":"inactive"}
{"Gene":"SAMD4B","migration robust z-score":-0.88,"migration class with cell-count check":"migration z between -2 and 2; enough cells","nuclei per well, duplicate mean":5074,"Call":"inactive"}
